Measured values: paper PMC7948462
Results are given in words; binding and its absence hold for the method and conditions named. In cells and extracts the contact can be indirect. Binding can be weak; no strength is given.

Chains of the proteins cited; added tags and fusions are not shown. Lines headed by an entry give the natural chain unless they say otherwise; changes in a name come on top. A line that says so, or that is headed by a name, gives the form on record, which may keep a tag or linker.
UniProt Q96RR4: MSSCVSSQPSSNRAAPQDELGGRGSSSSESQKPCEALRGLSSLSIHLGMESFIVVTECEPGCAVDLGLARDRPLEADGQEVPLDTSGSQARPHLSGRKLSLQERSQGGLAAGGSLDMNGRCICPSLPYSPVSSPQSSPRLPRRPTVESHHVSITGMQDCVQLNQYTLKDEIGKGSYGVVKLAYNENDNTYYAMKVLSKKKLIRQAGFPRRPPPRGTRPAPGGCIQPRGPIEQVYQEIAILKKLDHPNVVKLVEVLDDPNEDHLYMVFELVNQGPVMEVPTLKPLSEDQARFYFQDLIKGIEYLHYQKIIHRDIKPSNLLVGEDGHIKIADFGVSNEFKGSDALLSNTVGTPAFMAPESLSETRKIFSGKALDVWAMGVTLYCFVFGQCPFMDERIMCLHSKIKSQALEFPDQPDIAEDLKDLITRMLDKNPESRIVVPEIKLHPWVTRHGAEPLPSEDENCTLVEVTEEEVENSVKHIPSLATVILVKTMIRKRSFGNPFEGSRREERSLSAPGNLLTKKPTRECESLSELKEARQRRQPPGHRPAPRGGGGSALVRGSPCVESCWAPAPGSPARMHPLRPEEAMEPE
UniProt Q13131: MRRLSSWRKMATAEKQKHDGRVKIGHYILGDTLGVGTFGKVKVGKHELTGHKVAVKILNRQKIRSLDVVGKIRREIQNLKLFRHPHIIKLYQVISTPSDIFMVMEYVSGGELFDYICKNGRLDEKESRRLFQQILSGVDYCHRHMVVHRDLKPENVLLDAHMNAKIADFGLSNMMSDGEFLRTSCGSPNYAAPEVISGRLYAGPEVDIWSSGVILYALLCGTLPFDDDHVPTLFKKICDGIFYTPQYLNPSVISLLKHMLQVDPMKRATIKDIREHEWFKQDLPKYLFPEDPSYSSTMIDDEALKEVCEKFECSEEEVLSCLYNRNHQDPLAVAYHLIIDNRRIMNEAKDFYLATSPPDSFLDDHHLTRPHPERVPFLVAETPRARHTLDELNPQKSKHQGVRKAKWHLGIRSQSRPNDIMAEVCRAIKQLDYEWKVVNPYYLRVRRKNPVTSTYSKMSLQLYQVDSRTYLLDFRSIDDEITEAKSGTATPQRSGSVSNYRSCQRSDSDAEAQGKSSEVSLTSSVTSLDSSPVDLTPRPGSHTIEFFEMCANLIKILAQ
UniProt P46940: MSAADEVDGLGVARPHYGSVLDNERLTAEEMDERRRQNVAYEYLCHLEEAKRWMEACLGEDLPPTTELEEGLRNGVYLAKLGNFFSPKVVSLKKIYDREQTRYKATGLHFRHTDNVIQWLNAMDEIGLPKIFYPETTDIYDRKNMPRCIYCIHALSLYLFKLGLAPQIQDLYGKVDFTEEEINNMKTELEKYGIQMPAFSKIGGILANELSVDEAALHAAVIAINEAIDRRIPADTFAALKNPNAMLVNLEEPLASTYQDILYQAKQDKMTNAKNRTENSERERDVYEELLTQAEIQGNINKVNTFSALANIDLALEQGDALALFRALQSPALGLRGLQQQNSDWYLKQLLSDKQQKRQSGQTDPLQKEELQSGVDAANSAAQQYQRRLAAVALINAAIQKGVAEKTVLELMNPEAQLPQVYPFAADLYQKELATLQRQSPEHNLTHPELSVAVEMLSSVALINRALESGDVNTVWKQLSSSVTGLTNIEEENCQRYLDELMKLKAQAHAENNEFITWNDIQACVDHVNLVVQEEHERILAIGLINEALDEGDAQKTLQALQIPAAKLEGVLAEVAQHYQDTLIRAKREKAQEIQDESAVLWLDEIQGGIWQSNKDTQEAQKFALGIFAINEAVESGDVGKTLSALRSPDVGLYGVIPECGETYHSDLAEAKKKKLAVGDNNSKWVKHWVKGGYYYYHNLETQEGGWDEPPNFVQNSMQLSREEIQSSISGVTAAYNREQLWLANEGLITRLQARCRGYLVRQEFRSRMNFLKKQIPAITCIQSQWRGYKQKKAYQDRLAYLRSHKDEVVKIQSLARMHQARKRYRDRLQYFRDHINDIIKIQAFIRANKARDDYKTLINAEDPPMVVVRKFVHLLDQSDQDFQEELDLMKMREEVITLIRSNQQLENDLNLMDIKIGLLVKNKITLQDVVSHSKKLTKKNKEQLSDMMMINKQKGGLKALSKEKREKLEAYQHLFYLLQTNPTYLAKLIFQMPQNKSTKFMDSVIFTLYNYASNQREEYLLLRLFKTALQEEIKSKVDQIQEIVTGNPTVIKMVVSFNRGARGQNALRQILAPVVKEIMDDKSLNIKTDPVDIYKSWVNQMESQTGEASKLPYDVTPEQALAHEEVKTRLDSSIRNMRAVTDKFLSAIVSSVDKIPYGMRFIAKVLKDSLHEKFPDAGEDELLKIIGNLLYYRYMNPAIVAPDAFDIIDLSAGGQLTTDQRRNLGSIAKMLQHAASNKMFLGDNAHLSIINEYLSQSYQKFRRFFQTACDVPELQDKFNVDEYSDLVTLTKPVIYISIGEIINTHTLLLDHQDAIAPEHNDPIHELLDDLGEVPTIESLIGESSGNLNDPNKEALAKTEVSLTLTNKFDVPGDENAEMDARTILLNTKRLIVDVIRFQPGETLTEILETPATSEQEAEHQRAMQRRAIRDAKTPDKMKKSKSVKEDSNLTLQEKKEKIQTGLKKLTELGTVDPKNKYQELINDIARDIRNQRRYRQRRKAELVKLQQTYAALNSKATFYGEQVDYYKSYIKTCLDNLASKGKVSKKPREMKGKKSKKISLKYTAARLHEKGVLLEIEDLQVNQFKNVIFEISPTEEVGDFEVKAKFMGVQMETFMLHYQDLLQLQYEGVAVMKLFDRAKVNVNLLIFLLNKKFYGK
IQGAP1Δ746-860, biotinylated-lysine-labelled TNT product (P46940, form named): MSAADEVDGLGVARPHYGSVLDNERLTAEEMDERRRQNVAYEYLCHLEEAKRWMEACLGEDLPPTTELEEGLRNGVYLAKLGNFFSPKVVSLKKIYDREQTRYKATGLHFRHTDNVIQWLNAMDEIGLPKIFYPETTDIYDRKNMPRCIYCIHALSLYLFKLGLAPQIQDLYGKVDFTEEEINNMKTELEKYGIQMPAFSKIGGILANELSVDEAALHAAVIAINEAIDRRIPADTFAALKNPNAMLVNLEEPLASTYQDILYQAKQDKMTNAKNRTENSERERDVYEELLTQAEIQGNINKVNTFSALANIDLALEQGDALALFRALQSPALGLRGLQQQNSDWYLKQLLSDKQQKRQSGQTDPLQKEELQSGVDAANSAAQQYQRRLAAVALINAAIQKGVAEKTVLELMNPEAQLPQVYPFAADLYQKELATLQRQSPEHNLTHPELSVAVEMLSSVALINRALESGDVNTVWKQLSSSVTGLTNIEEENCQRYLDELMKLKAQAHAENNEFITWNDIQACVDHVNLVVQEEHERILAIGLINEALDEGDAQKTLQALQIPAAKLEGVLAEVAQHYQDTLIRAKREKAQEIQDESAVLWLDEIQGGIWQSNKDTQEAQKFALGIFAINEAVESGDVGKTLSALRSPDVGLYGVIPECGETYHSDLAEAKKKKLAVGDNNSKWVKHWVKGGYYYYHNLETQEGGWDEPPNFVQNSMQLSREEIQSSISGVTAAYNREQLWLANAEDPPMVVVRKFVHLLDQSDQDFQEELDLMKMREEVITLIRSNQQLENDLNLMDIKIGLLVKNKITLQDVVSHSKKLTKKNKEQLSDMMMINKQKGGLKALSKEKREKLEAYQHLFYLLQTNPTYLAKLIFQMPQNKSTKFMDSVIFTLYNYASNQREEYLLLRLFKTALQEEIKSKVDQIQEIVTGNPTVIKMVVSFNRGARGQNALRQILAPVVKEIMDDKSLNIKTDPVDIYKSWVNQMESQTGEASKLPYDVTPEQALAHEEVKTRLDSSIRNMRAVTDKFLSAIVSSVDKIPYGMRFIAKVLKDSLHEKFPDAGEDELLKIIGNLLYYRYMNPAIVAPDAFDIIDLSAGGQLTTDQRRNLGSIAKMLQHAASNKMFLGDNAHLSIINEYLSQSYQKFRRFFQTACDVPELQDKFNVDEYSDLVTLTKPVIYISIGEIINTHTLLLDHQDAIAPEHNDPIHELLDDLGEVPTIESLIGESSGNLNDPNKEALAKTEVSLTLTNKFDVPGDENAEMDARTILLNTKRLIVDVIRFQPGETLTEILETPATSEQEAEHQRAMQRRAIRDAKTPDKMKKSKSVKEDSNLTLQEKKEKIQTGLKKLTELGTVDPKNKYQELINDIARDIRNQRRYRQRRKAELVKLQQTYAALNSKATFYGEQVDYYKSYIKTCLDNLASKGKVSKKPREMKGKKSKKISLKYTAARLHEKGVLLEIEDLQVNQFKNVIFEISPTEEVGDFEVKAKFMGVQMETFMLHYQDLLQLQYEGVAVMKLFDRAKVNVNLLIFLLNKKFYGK

Assays:
[1] = target: GST-CaMKK2 (UniProt Q96RR4); assay: pull-down; [35S]methionine-labelled TNT products of IQGAP1 incubated with GST proteins for 3 h at 4 °C, glutathione-Sepharose, five washes with lysis buffer, SDS-PAGE and autoradiography; only the target purified
[2] = target: GST-AMPKα1 (UniProt Q13131); assay: as above
[3] = target: GFP-CaMKK2 (GFP-tagged Ca2+/calmodulin-dependent protein kinase kinase 2) (UniProt Q96RR4); assay: co-IP; GFP-tagged proteins immunoprecipitated with GFP-Trap Agarose from lysates of transfected HEK-293 cells, 3 h; blot with anti-IQGAP1
[4] = target: GST-CaMKK2 (UniProt Q96RR4); assay: pull-down; biotinylated-lysine-labelled TNT products of IQGAP1 incubated with GST proteins for 3 h at 4 °C, pulled down, blot with IRDye-conjugated streptavidin; only the target purified
[5] = target: GST-AMPKα1 (UniProt Q13131); assay: as above
[6] = target: endogenous IQGAP1 (IQ motif-containing GTPase-activating protein 1) (human (endogenous in HEK-293)) (UniProt P46940); assay: co-IP; endogenous IQGAP1 immunoprecipitated with anti-IQGAP1 polyclonal antibodies and protein A-Sepharose from lysates of transfected HEK-293 cells (50 mM Tris-HCl pH 7.4, 150 mM NaCl, 1% Triton X-100), 3 h at 4 °C; blot with anti-GFP; nonimmune rabbit serum as control

Substance | binding [1] | binding [2] | also measured
IQGAP1 C-terminal half (amino acids 864-1657) (from UniProt P46940 864-1657) (domain or fragment) | no binding | no binding | 
endogenous IQGAP1 (IQ motif-containing GTPase-activating protein 1) (from UniProt P46940 1-1657) |  |  | binding [3]: binds
IQGAP1 IQ domain (amino acids 717-916) (from UniProt P46940 717-916) (domain or fragment) | binds | binds | 
full-length IQGAP1, biotinylated-lysine-labelled TNT product (from UniProt P46940 2-1657) |  |  | binding [4]: binds; binding [5]: binds
IQGAP1Δ746-860, biotinylated-lysine-labelled TNT product (from UniProt P46940) |  |  | binding [4]: no binding; binding [5]: no binding
IQGAP1 N-terminal half (amino acids 2-863) (from UniProt P46940 2-863) (domain or fragment) | binds | binds | 
GFP-CaMKK2 (GFP-tagged Ca2+/calmodulin-dependent protein kinase kinase 2) (from UniProt Q96RR4-3) |  |  | binding [6]: binds
full-length IQGAP1, [35S]methionine-labelled TNT product (from UniProt P46940 2-1657) | binds | binds | 
